Here are results for one molecule from publication PMC8483785, “The plant nuclear lamina proteins NMCP1 and NMCP2 form a filamentous network with lateral filament associations” (Journal of Experimental Botany, 2021).

No constants are given. Whether binding was seen depends on the method and setting. Some results given as binding are weak or reduced against the parent protein; the word gives no strength. Where a sequence is shown, tags or fusion partners need not be part of it.

The target in the experiment is His-tagged DcNMCP2 (Daucus carota nuclear matrix constituent protein 2 with an N-terminal 6x His tag) (Daucus carota) (UniProt D2YZU8). Kind of experiment: transmission electron microscopy (low-angle rotary shadowing, negative staining); after refolding in H2O, dialysed against 20 mM Na acetate (pH 5.6) with or without 40 mM KCl, 1-16 h at 4 °C, to promote polymerization; dimers to filaments and filament bundles; both purified.

B1: His-tagged DcNMCP2 (Daucus carota nuclear matrix constituent protein 2 with an N-terminal 6x His tag) (natural protein, UniProt D2YZU8 1-927, looked up)
chain: MASPRLTVIQSEKTTVTSSRVSRSSMSDDDIWKRLQEAGFDEDSIKRRDKASLIAYITKLEAEIYDHQYQMGLLIMERKEWGSKFERVEAALNSAELMRKHDKNLYLKDLAEAKKREENLKKAIEIERECLANIEKTLHELRAEYAETKVMADSKLVEARSMIEDALKKLSEADAKKHAAESLEAEASRYHSAAERKLHEVEAREDDLRRRATSFKTECDTKEEEILHERRLLNERQKALQQSQQRLVDGQDLLNKRESHIFERTQELNRKEKELEASKLKQEEELQALVEQQANLETKASSLSLREEVITKSELEVKKREEELCVLQEKLEKKESERIQQLLANYEASLSMKKSEFEAELEVKRKSVHDDIENKRRDWELREVDLHHREELILEKEHELEMQSRAVVDKERDLAGRFSLLEEKENRLHAVEKEIESKEALLQKEKEEIISSKLDIQRSLDALEDEKKQLHHAEEKMEAMKSETNELCVLESKLKEEIETIRAQKQELETEADEMKELKLKFEIEWQSIDEKRKELQKEAECINEQRESLELTLKDERNSLKLEKDAMRDEYMRNNESLSRDREDFMKKMEHERSEWFSKIQKERSDYLLAIEVQSKDLEDRLAKRREEIESYLAERERAFEEEKKKELMRMDTLRETLARETEQVNAELNRLDTERREINLDRERRDREWAELNTLIEELKVQRQKLEKQRELMRADKEEILVQIEHLKQLEDLKVVPDRIALTDIQQSDLQPSKRVSARRSLKRQSGLDSGCRAEDNGNASSGNGSVILSPPLSSPFSWLKRCASSLLEQKVSNKKMRHSEEIITPSTIPARLNAPDDEHAVISANQQTPVHAKETTVYIDKIITIREVTSFNDAIVDGNNQNLEEALSQRAEEKLEDDNNIESEKLEKNGEVDPKIMQASLTEQ
notes: Nuclear matrix constituent protein 2 (NMCP2) of Daucus carota; longest ORF of cDNA clone pD2m, amplified from the start codon to the stop codon; the PCR product included a 2808 bp ORF; GenBank AB514509; also called 6x His-tagged DcNMCP2; product of pDC2mN; not shown: His6, N-terminal, kept
Consider B1, for which the binding result is listed as “binds weakly”.
